PubChem BioAssay AID1508597 – Cure First – 2020
This is a random part of the about 2,100 reagents, in one setting of the screen. 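Calls flag viability under 80% in either arm, not effects specific to rucaparib; the reference for percent is not stated.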 Some reagents were tested in more than one well and are listed for each. Not given: the 100% reference.

- Aim: 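Genes whose silencing sensitises or protects ovarian cancer cells against rucaparib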 (primary screen)
- Cell system: human ovarian carcinoma lines grown from tumours: OCI-P5x (papillary serous) and OCI-C5x (clear cell)
- Reagent: siRNA pool against human genes, 1.25 pmol siRNA per well
- Duration: 72 h or 96 h, depending on the cell culture
- Challenge: rucaparib 20 µM (about IC30) or vehicle, present until read-out
- Rucaparib or vehicle: Vehicle
- Cell line: OCI-C5x (clear cell)
- Read-out: 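Luminescent ATP-based viability assay read 72 or 96 h after transfection, depending on culture, given as normalised percent viability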
- Direction: viability, normalised: higher = more viable cells remaining
- Hit rule: 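a well counts as a hit if its normalised viability is under 80 percent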
- Meaning of the calls: active = viability under 80%; inactive = viability 80% or more

MED29 (mediator complex subunit 29), technical replicate 1 showed viability, normalised (%) = 30.4; active.
MED29 (mediator complex subunit 29), technical replicate 2 showed viability, normalised (%) = 32.7; active.
MED29 (mediator complex subunit 29), technical replicate 3 showed viability, normalised (%) = 46.5; active.
For SCYL1 (SCY1 like pseudokinase 1), technical replicate 1, the entry reads viability, normalised (%) = 50.5; active.
SCYL1 (SCY1 like pseudokinase 1), technical replicate 1 showed viability, normalised (%) = 57.7; active.
SCYL1 (SCY1 like pseudokinase 1), technical replicate 2 gave viability, normalised (%) = 54.3; active.
SCYL1 (SCY1 like pseudokinase 1), technical replicate 2 scored viability, normalised (%) = 31.9; active.
For SCYL1 (SCY1 like pseudokinase 1), technical replicate 3 the deposit lists viability, normalised (%) = 70.6; active.
SCYL1 (SCY1 like pseudokinase 1), technical replicate 3 showed viability, normalised (%) = 65.9; active.

Sorted by “viability, normalised (%)” (high to low): 2 of the entries above
SCYL1 (SCY1 like pseudokinase 1), technical replicate 2: viability, normalised (%) = 54.3; Call = active
SCYL1 (SCY1 like pseudokinase 1), technical replicate 2: viability, normalised (%) = 31.9; Call = active

The results go on:
STK25 (serine/threonine kinase 25), technical replicate 1 showed viability, normalised (%) = 87.5; inactive.
For STK25 (serine/threonine kinase 25), technical replicate 2, the values are viability, normalised (%) = 38; active.
For STK25 (serine/threonine kinase 25), technical replicate 3, the entry reads viability, normalised (%) = 50; active.
With POLD1 (DNA polymerase delta 1, catalytic subunit), technical replicate 1, the values are viability, normalised (%) = 48.4; active.
POLD1 (DNA polymerase delta 1, catalytic subunit), technical replicate 2 showed viability, normalised (%) = 32.3; active.
With POLD1 (DNA polymerase delta 1, catalytic subunit), technical replicate 3 the deposit lists viability, normalised (%) = 48; active.
NAP1L2 (nucleosome assembly protein 1 like 2), technical replicate 1 showed viability, normalised (%) = 52.8; active.
With NAP1L2 (nucleosome assembly protein 1 like 2), technical replicate 2 the deposit lists viability, normalised (%) = 40; active.
NAP1L2 (nucleosome assembly protein 1 like 2), technical replicate 3 scored viability, normalised (%) = 51.7; active.
PRKXP1 (PRKX pseudogene 1), technical replicate 1 gave viability, normalised (%) = 42.2; active.
With PRKXP1 (PRKX pseudogene 1), technical replicate 2, the entry reads viability, normalised (%) = 44.1; active.
PRKXP1 (PRKX pseudogene 1), technical replicate 3 showed viability, normalised (%) = 55.9; active.
